# Laboratory results published in article PMC10604535.
# Amino acid sequences for entries named in this document (tags omitted).
# UniProt Q92793: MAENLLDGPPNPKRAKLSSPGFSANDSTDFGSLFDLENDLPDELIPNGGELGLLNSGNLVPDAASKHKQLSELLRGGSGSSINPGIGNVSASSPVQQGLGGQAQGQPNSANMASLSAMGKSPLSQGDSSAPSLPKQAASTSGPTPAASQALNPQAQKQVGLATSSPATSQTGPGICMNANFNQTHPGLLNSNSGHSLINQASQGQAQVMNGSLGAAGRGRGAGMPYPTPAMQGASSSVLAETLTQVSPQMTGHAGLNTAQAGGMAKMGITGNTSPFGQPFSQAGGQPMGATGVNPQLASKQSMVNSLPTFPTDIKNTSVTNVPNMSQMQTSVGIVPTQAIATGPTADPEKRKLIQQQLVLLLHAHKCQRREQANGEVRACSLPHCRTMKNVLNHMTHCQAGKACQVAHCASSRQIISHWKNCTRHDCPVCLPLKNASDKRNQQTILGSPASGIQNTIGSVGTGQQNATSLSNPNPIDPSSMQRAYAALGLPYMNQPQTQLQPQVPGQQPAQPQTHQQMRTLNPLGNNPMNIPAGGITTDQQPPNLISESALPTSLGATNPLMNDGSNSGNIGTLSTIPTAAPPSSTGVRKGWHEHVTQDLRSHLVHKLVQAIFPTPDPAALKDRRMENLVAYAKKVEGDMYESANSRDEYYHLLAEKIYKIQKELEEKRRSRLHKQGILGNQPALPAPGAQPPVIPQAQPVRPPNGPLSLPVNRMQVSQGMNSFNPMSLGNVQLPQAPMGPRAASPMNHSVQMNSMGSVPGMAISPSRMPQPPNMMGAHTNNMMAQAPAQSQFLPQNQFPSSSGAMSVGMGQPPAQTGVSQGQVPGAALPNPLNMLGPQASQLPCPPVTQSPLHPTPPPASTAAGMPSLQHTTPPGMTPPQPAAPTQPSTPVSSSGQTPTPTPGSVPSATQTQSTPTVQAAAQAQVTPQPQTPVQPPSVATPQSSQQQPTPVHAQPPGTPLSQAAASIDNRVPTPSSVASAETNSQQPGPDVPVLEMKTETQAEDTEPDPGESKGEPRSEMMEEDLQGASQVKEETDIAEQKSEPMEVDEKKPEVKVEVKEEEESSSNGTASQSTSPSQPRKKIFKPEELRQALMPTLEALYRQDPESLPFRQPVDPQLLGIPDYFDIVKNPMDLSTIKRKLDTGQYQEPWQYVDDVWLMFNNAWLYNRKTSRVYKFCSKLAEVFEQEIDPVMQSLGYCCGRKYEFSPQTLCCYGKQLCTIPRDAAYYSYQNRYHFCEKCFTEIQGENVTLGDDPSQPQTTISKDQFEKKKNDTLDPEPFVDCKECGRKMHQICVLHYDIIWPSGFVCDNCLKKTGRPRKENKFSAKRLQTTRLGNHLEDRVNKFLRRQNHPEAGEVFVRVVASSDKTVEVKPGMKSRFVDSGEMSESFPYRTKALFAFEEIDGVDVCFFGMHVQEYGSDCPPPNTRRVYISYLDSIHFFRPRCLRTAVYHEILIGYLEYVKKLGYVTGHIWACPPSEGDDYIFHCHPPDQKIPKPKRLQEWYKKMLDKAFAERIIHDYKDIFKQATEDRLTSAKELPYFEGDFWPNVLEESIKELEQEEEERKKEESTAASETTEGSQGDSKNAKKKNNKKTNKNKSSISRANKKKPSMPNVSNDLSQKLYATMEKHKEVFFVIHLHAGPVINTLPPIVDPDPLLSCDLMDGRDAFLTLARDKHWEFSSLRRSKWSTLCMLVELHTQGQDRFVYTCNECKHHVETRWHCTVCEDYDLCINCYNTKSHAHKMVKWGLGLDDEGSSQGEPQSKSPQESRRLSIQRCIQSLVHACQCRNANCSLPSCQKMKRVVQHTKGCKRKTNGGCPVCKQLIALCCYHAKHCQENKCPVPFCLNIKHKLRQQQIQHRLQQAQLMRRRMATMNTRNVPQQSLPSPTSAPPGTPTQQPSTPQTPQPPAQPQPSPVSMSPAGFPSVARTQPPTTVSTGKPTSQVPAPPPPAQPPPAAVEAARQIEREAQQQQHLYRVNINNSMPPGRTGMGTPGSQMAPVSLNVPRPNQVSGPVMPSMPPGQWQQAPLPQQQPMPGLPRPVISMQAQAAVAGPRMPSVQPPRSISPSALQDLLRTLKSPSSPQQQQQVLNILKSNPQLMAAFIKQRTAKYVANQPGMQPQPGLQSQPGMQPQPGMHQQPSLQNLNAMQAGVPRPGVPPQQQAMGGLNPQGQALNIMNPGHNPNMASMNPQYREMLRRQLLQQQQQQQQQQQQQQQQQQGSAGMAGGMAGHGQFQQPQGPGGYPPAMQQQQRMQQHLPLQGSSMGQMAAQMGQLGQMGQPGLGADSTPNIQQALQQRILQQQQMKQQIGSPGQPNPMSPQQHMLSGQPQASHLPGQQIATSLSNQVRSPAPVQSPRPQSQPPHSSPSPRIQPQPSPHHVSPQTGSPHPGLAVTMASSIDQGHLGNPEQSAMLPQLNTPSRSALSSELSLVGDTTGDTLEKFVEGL
# UniProt P16220: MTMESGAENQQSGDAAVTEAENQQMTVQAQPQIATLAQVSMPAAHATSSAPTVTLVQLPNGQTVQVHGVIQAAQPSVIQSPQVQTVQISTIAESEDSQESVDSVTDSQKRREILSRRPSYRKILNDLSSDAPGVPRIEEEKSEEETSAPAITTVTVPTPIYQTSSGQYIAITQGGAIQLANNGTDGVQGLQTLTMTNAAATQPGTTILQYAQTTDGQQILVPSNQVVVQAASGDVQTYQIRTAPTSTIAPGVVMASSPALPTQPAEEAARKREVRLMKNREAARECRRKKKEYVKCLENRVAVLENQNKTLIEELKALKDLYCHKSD
# Results are given in words; binding and its absence hold for the method and conditions named. In cells and extracts the contact can be indirect. Some entries that bind do so weakly or less than the wild type.
# Molecular target: CREB-binding protein (CBP) (human (endogenous in 293T)) (UniProt Q92793)
# Assay: co-IP; 293T cells transfected with or without CRTC2-Flag plasmid for 48 h; RIPA lysate; IP with CBP antibody (normal mouse IgG as control) overnight at 4 °C, Protein A/G agarose, PBS washes; immunoblot
substance,measurement,value
cAMP response element-binding protein (CREB) (from UniProt P16220 1-327),binding,binds
